{"source": "paper PMC3879318", "binders": {"B1": {"name": "His-tagged necdin (protein, UniProt P25233 1-325)", "chain": "MSEQSKDLSDPNFAAEVPDCEMQDSDAVPVGIPPPASLAANLAGPPCAPEGPMAAQQASPPPEERIEDVDPKILQQAAEEGRAHQPQSPARPIPAPPAPAQLVQKAHELMWYVLVKDQKRMVLWFPDMVKEVMGSYKKWCRSILRRTSVILARVFGLHLRLTNLHTMEFALVKALSPEELDRVALNNRMPMTGLLLMILSLIYVKGRGAREGAVWNVLRILGLRPWKKHSTFGDVRKIITEEFVQQNYLKYQRVPHIEPPEYEFFWGSRANREITKMQIMEFLARVFKKDPQAWPSRYREALEQARALREANLAAQAPRSSVSED"}}, "molecular_target": "GST-Bmi1 C-terminal deletion mutant (ΔCT) (mouse)", "experiment": "pull-down; GST-Bmi1 fusions immobilized on glutathione Sepharose 4B incubated with His-tagged necdin (200 ng) at 4°C for 2 hrs in 1 ml of 50 mM Tris buffer pH 8.0, 300 mM KCl, 2 mM 2-mercaptoethanol; bound His-necdin detected by Western blotting; both purified", "note": "Results are given in words; binding and its absence hold for the method and conditions named. Binding calls can cover weak binding; strength is not graded here. Sequences can lack the tags named with a protein."}
{"binder": "B1", "values": [{"measurement": "binding", "value": "binds"}]}
